Assay results reported in publication PMC7862700.
This is a selection; strong and weak results do not stand in their true shares. At the low end of the ranking the order means little.

target: T1, GABPA (UniProt Q06546); assay: DAPPL (digital affinity profiling via proximity ligation, sequencing); conditions: 10 mM Tris-HCl pH 7.5, 50 mM NaCl, 1 mM DTT, 4% glycerol, room temperature, 30 min; GST-TFs on glutathione beads, 16-mer random dsDNA library, 0.1% …; high values mean tight binding; double strand, one strand shown; scale: fold enrichment (6-mer frequency, TF over GST control)
T1 sequence: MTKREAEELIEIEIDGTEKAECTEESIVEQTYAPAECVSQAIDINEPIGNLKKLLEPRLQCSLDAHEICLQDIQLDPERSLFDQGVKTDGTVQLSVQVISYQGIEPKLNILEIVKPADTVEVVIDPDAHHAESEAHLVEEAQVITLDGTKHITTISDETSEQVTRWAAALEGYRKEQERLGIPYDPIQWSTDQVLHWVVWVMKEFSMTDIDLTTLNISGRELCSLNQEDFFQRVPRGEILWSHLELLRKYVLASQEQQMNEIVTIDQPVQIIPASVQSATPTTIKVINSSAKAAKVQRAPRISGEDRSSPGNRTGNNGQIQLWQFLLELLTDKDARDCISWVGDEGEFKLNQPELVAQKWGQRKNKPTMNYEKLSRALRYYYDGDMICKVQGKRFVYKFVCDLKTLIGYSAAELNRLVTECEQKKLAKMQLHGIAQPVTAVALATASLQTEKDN

| Sequence | binding signal |
| --- | --- |
| CGTGTA | 0.635 |
| GAGATC | 0.48 |
| GGAGGG | 0.329 |
| AAGTGA | 0.666 |
| GAGAGA | 0.415 |
| GGATCG | 0.587 |
| GACATA | 0.873 |
| CAGTCC | 0.705 |
| GGCACG | 0.901 |
| GGTAGA | 0.614 |
| CAACGT | 0.857 |
| CCCAGT | 0.626 |
| CGGTAA | 0.986 |
| GGGAAC | 0.633 |
| GAGCGA | 0.593 |
| GATCGC | 0.868 |
| CGGGGG | 0.47 |
| GGTAAG | 0.754 |
| ACGGTG | 0.552 |
| CGTCGT | 0.786 |

Exported as tab-separated lines: entries from further up
Sequence	binding signal
GGTAGA	0.614
CAACGT	0.857
CGGTAA	0.986

(next part)

| Sequence | binding signal |
| --- | --- |
| GTACCG | 0.73 |
| GAGAAC | 0.413 |
| GCATTG | 0.82 |
| ACTGAG | 0.785 |
| GTTGGG | 0.641 |
| CGGCGA | 0.766 |
| GTAGAG | 0.594 |
| TTGGAG | 0.487 |
| GTGTGG | 0.689 |
| CGGTCC | 0.867 |
| GGGGGA | 0.562 |
| GTGTAT | 0.914 |
| TCGTGA | 0.335 |
| GACAGC | 0.813 |
| GGCGTG | 0.336 |
| GTCAGT | 0.613 |
| AGCGTT | 0.866 |
| TGTGTA | 0.826 |
| AGACGA | 0.706 |
